The results in this text go back to the supplement of paper PMC11546906.

Counter-ions that a name gives are not always drawn. Some of the results follow. Single values are uncertain here, since repeats match poorly.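 Screen of FDA-approved drugs, each combined with colistin at one-eighth of its MIC, against a multidrug-resistant mcr-1-positive clinical E. coli isolate; growth read as OD600 after 24 h. Bacteria without drug were the growth control and plain broth the blank. A combination counted as active when OD600 fell below 0.2.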

The assay deals with Escherichia coli 42 (mcr-1-positive clinical isolate). Put plainly: OD600 after 24 h growth with compound plus colistin (absorbance units (OD600)); higher = more bacterial growth (less inhibition). The settings on record: first compound 25 µM; colistin concentration 0.5 ug/mL; incubation time 24 h; 37 °C.

For the compound `CC(=O)OCC(=O)[C@@]1(O)CC[C@H]2[C@@H]3CCC4=CC(=O)C=C[C@]4(C)[C@H]3[C@@H](O)C[C@@]21C` [Prednisolone acetate] + CCC(C)CCCC(=O)N[C@@H](CCN)C(=O)N[C@H](C(=O)N[C@@H](CCN)C(=O)N[C@H]1CCNC(=O)[C@H]([C@@H](C)O)NC(=O)[C@H](CCN)NC(=O)[C@H](CCN)NC(=O)[C@H](CC(C)C)NC(=O)[C@@H](CC(C)C)NC(=O)[C@H](CCN)NC1=O)[C@@H](C)O [colistin], the OD600 is inactive: 0.703.
Under `O=C(O[C@@H]1C[C@@H]2C[C@H]3C[C@H](C1)N2CC3=O)c1c[nH]c2ccccc12` [Dolasetron Mesylate hydrate] + CCC(C)CCCC(=O)N[C@@H](CCN)C(=O)N[C@H](C(=O)N[C@@H](CCN)C(=O)N[C@H]1CCNC(=O)[C@H]([C@@H](C)O)NC(=O)[C@H](CCN)NC(=O)[C@H](CCN)NC(=O)[C@H](CC(C)C)NC(=O)[C@@H](CC(C)C)NC(=O)[C@H](CCN)NC1=O)[C@@H](C)O [colistin] stands inactive: 0.984; under `COc1cc2ncnc(Nc3ccc(F)c(Cl)c3)c2cc1OCCCN1CCOCC1` [Gefitinib] + CCC(C)CCCC(=O)N[C@@H](CCN)C(=O)N[C@H](C(=O)N[C@@H](CCN)C(=O)N[C@H]1CCNC(=O)[C@H]([C@@H](C)O)NC(=O)[C@H](CCN)NC(=O)[C@H](CCN)NC(=O)[C@H](CC(C)C)NC(=O)[C@@H](CC(C)C)NC(=O)[C@H](CCN)NC1=O)[C@@H](C)O [colistin], inactive: 1.
Under `COc1ncnc(NS(=O)(=O)c2ccc(N)cc2)c1OC` [Sulfadoxine] + CCC(C)CCCC(=O)N[C@@H](CCN)C(=O)N[C@H](C(=O)N[C@@H](CCN)C(=O)N[C@H]1CCNC(=O)[C@H]([C@@H](C)O)NC(=O)[C@H](CCN)NC(=O)[C@H](CCN)NC(=O)[C@H](CC(C)C)NC(=O)[C@@H](CC(C)C)NC(=O)[C@H](CCN)NC1=O)[C@@H](C)O [colistin] stands inactive: 0.975; under `N[C@@H](CC(=O)N1CCn2c(nnc2C(F)(F)F)C1)Cc1cc(F)c(F)cc1F` [Sitagliptin] + CCC(C)CCCC(=O)N[C@@H](CCN)C(=O)N[C@H](C(=O)N[C@@H](CCN)C(=O)N[C@H]1CCNC(=O)[C@H]([C@@H](C)O)NC(=O)[C@H](CCN)NC(=O)[C@H](CCN)NC(=O)[C@H](CC(C)C)NC(=O)[C@@H](CC(C)C)NC(=O)[C@H](CCN)NC1=O)[C@@H](C)O [colistin], inactive: 1.1.
The value for `O=C1Cc2cc(CCN3CCN(c4nsc5ccccc45)CC3)c(Cl)cc2N1` [Ziprasidone hydrochloride monohydrate] + CCC(C)CCCC(=O)N[C@@H](CCN)C(=O)N[C@H](C(=O)N[C@@H](CCN)C(=O)N[C@H]1CCNC(=O)[C@H]([C@@H](C)O)NC(=O)[C@H](CCN)NC(=O)[C@H](CCN)NC(=O)[C@H](CC(C)C)NC(=O)[C@@H](CC(C)C)NC(=O)[C@H](CCN)NC1=O)[C@@H](C)O [colistin] was inactive: 0.93.
On to `O=C(N[C@H](CO)[C@H](O)c1ccc([N+](=O)[O-])cc1)C(Cl)Cl` [Chloramphenicol] + CCC(C)CCCC(=O)N[C@@H](CCN)C(=O)N[C@H](C(=O)N[C@@H](CCN)C(=O)N[C@H]1CCNC(=O)[C@H]([C@@H](C)O)NC(=O)[C@H](CCN)NC(=O)[C@H](CCN)NC(=O)[C@H](CC(C)C)NC(=O)[C@@H](CC(C)C)NC(=O)[C@H](CCN)NC1=O)[C@@H](C)O [colistin], for which the OD600 was inactive: 0.849.
Under `CCn1cc(C(=O)O)c(=O)c2cc(F)c(N3CCNC(C)C3)c(F)c21` (configuration not stated) [Lomefloxacin] + CCC(C)CCCC(=O)N[C@@H](CCN)C(=O)N[C@H](C(=O)N[C@@H](CCN)C(=O)N[C@H]1CCNC(=O)[C@H]([C@@H](C)O)NC(=O)[C@H](CCN)NC(=O)[C@H](CCN)NC(=O)[C@H](CC(C)C)NC(=O)[C@@H](CC(C)C)NC(=O)[C@H](CCN)NC1=O)[C@@H](C)O [colistin] stands inactive: 0.975.
On to `COC(=O)[C@H](c1ccccc1Cl)N1CCc2sccc2C1` [Clopidogrel] + CCC(C)CCCC(=O)N[C@@H](CCN)C(=O)N[C@H](C(=O)N[C@@H](CCN)C(=O)N[C@H]1CCNC(=O)[C@H]([C@@H](C)O)NC(=O)[C@H](CCN)NC(=O)[C@H](CCN)NC(=O)[C@H](CC(C)C)NC(=O)[C@@H](CC(C)C)NC(=O)[C@H](CCN)NC1=O)[C@@H](C)O [colistin], for which the OD600 is inactive: 0.999.
Under `CNC(=O)c1cc(Oc2ccc(NC(=O)Nc3ccc(Cl)c(C(F)(F)F)c3)c(F)c2)ccn1` [Regorafenib] + CCC(C)CCCC(=O)N[C@@H](CCN)C(=O)N[C@H](C(=O)N[C@@H](CCN)C(=O)N[C@H]1CCNC(=O)[C@H]([C@@H](C)O)NC(=O)[C@H](CCN)NC(=O)[C@H](CCN)NC(=O)[C@H](CC(C)C)NC(=O)[C@@H](CC(C)C)NC(=O)[C@H](CCN)NC1=O)[C@@H](C)O [colistin] stands inactive: 1.07; under `COc1ccc(CNc2nc(N3CCC[C@H]3CO)ncc2C(=O)NCc2ncccn2)cc1Cl` [Avanafil] + CCC(C)CCCC(=O)N[C@@H](CCN)C(=O)N[C@H](C(=O)N[C@@H](CCN)C(=O)N[C@H]1CCNC(=O)[C@H]([C@@H](C)O)NC(=O)[C@H](CCN)NC(=O)[C@H](CCN)NC(=O)[C@H](CC(C)C)NC(=O)[C@@H](CC(C)C)NC(=O)[C@H](CCN)NC1=O)[C@@H](C)O [colistin], inactive: 0.934; under `COc1cc([C@@H]2c3cc4c(cc3[C@@H](O[C@@H]3O[C@@H]5CO[C@@H](c6cccs6)O[C@H]5[C@H](O)[C@H]3O)[C@H]3COC(=O)[C@H]23)OCO4)cc(OC)c1O` [Teniposide] + CCC(C)CCCC(=O)N[C@@H](CCN)C(=O)N[C@H](C(=O)N[C@@H](CCN)C(=O)N[C@H]1CCNC(=O)[C@H]([C@@H](C)O)NC(=O)[C@H](CCN)NC(=O)[C@H](CCN)NC(=O)[C@H](CC(C)C)NC(=O)[C@@H](CC(C)C)NC(=O)[C@H](CCN)NC1=O)[C@@H](C)O [colistin], inactive: 0.929.
